Assay results reported in PubChem BioAssay AID1671190 (National Center for Advancing Translational Sciences (NCATS), 2021).
Out of some 580,000 compounds screened, about 6,100 (1.1%) were called active. Inconclusive means that the source gave no clear call. Such entries were picked first, then a sample of the others. Calls follow the shape of the dose curve; as a rule, active = well fitted inhibition curve with a large enough effect; inconclusive = small, poorly fitted or top-dose-only effect, or another doubt; inactive = no such curve, though single readings can be large or run the other way. A potency beside an inconclusive call is a rough fit, not a confirmed value.

The chains behind the UniProt entries cited, without tags or fusion partners. Where a name states a change or a piece, a line headed by the entry shows the natural chain unless it says otherwise.
UniProt P18054: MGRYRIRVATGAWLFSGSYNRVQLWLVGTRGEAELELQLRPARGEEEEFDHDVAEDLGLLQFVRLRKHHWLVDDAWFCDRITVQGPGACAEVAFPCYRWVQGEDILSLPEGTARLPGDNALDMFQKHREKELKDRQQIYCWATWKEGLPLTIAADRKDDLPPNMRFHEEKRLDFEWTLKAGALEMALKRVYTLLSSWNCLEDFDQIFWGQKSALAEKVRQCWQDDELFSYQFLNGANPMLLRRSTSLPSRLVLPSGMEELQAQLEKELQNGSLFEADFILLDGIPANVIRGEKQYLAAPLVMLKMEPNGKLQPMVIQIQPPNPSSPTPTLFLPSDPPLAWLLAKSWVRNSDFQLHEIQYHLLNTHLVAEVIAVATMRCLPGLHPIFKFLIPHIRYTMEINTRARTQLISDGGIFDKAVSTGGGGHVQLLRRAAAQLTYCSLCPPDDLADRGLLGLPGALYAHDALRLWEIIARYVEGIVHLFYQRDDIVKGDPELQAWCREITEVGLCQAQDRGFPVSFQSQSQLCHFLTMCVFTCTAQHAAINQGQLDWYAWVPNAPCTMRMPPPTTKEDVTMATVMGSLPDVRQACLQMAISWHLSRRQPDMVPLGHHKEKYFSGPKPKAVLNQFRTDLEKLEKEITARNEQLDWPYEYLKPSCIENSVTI

target: Polyunsaturated fatty acid lipoxygenase ALOX12 (Homo sapiens) (UniProt P18054); test: Primary qHTS assay for inhibitors of human arachidonate 12S-lipoxygenase (ALOX12): Round 2; details: purified 12hLO, xylenol orange hydroperoxide absorbance; series mostly up to 108 µM
In short: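 Purified human 12hLO at 150 nM in 25 mM Hepes, 0.01% Triton X-100, pH 7.0, preincubated 15 min at room temperature with compound. Reaction started with 40 uM arachidonic acid, 30 min at room temperature. Hydroperoxide measured by Fe-xylenol orange, 573/405 nm absorbance ratio.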
Potency is read from the fitted curve at half-maximal effect.

SMILES | Potency
Cc1ccc(CNC(=O)C2c3ccccc3C(=O)N3CCc4ccccc4C23)o1 (configuration not stated) | inactive
COc1cc(/C=N/Nc2ncnc3sc4c(c23)CCC4)ccc1O | inactive
COC(=O)C1=CO[C@@H](O)[C@@H]2C(CO)=CC[C@@H]12 | inactive
Cc1ccc(NC(=O)CCn2cccc2)cc1C | inactive
COc1ccc(-c2cn[nH]c2-c2ccc(OCc3ccc([N+](=O)[O-])cc3)cc2O)cc1OC | inactive
CNC(=S)N(Cc1ccc(OC)cc1)Cc1cc2ccc(C)cc2[nH]c1=O | inactive
Oc1ccc(C[C@H]2CNC(=S)N2C[C@H]2CCCN2C[C@H](Cc2ccccc2)N2C[C@H](Cc3ccc(O)cc3)N(CCc3ccccc3)C2=S)cc1 | inconclusive: 39.8 µM [inhibitor, partial curve, poor fit]
Cc1ccc(S(=O)(=O)N/N=C/c2cccc3c2OCCO3)cc1 | inconclusive: 50.1 µM [inhibitor, single point]
COc1cc2cc(C(c3nnnn3C(C)(C)C)N3CCc4ccccc4C3)c(=O)[nH]c2cc1OC (configuration not stated) | inconclusive: 44.7 µM [inhibitor, partial curve, poor fit]
O=C(C(=O)N1CCN(C(=O)c2ccco2)CC1)c1cc2ccccc2o1 | inconclusive: 126 µM [inhibitor, single point]
COc1ccc(S(=O)(=O)n2nc(C)c(S(=O)(=O)N3CCOCC3)c2C)cc1 | inconclusive: 35.5 µM [inhibitor, partial curve, poor fit]
COc1ccc(-c2[nH]c(-c3ccccc3)nc2SCC(=O)Nc2ccc3c(c2)OCCO3)cc1 | inactive
N#Cc1ccccc1-c1ccc2ncnc(NCc3ccccc3)c2c1 | inconclusive: 50.1 µM [inhibitor, partial curve, poor fit]
O=[N+]([O-])c1c(Cl)cccc1-c1c[nH]cc1Cl | inconclusive: 100 µM [inhibitor, partial curve, poor fit]
CC(Oc1ccccc1)C(=O)Nc1ccc(NC(=O)c2ccccc2)cc1 (configuration not stated) | inconclusive: 100 µM [inhibitor, partial curve, poor fit]
CC(C)(C)c1csc(Sc2ccc([N+](=O)[O-])cn2)n1 | inconclusive: 100 µM [inhibitor, partial curve, poor fit]
N#C/C(=N\Nc1ccc([N+](=O)[O-])cc1)C(N)=S | active: 25.1 µM
O=C(O)CSCc1cnn(-c2ccccc2)c1-n1cccc1 | inconclusive: 31.6 µM [inhibitor, partial curve, poor fit]
COCc1nnc(NC(=O)c2cc(OC)c(OC)cc2[N+](=O)[O-])s1 | inactive
CCOc1ccc(OCC)c(NC(=O)c2nc3ccccc3nc2N2CCOCC2)c1 | inactive
O=C(COC(=O)c1ccc(N2CCCC2=O)cc1)c1ccccc1 | inconclusive: 44.7 µM [inhibitor, full curve, poor fit]

SMILES | Potency
CC(C)C[C@H]1CN(CCCC[C@H]2CNC(=O)C(=O)N2CCc2ccc(O)cc2)C(=O)C(=O)N1CCC1CCCCC1 | inconclusive: 50.1 µM [inhibitor, partial curve, poor fit]
C[N+]12CC[N+](C)(CC1)CC2 | inconclusive: 2.24 µM [inhibitor, full curve, poor fit]
CC(C)n1nc(C(=O)Nc2ccc(S(=O)(=O)C(F)F)cc2)c2ccccc2c1=O | inactive
CCN1CCC2(CCC1=O)CN(c1ncnc3c1CCC3)CCN2C (configuration not stated) | inconclusive: 3.98 µM [inhibitor, full curve]
CN(C)C(Cn1cc(-c2cncnc2)nn1)c1ccccc1Cl (configuration not stated) | inconclusive: 100 µM [inhibitor, partial curve, poor fit]
CCOc1cc(NC(=S)NCC(C)C)c(OCC)cc1NC(=O)c1ccco1 | inconclusive: 22.4 µM [inhibitor, partial curve, poor fit]
CN1CCN(C(C(=O)O)c2cn(CC(=O)O)c3cc(Br)ccc23)CC1 (configuration not stated) | inconclusive: 10 µM [inhibitor, full curve, poor fit]
CCOC(=O)c1c(C)[nH]c(C(=O)COC(=O)c2cc(C)oc2C)c1C | inactive
Cc1cccc(-n2nc(C)cc2N)c1 | inconclusive: 7.94 µM [inhibitor, full curve, poor fit]
COc1ccc(S(=O)(=O)Nc2c(N3CCCC3)c3ccccc3oc2=O)cc1Cl | inconclusive: 44.7 µM [inhibitor, partial curve, poor fit]
O=C(Oc1ccc(Br)cc1C(=S)N1CCOCC1)c1cccc([N+](=O)[O-])c1 | inconclusive: 89.1 µM [inhibitor, partial curve, poor fit]
CC(C)(C(=O)NO)c1ccccc1 | inconclusive: 28.2 µM [inhibitor, partial curve, poor fit]
COc1cc(C#N)ccc1OC(=O)CCNC(=O)c1ccc(C(C)(C)C)cc1 | inconclusive: 39.8 µM [inhibitor, partial curve]
CCOC(=O)N1CCN(Cc2c(F)cccc2F)CC1 | inconclusive: 0.355 µM [inhibitor, full curve, poor fit]
Cn1nc(C(C)(C)C)cc1NC(=O)c1ccc(Cl)c(Cl)c1 | inconclusive: 35.5 µM [inhibitor, partial curve]
O=Cc1cccc(OC(=O)/C=C/c2ccco2)c1 | inconclusive: 44.7 µM [inhibitor, partial curve, poor fit]
N#Cc1ccc(NCCNC(=O)c2nccnc2N)nc1 | inactive
Cc1nnc(SCc2ccccc2Cl)c2cc3sccc3n12 | inactive
COc1ccc(S(=O)(=O)O/N=C2\CCCc3ccccc32)cc1 | inconclusive: 39.8 µM [inhibitor, partial curve, poor fit]
COC1CN(c2cccc(F)c2)C12CCN(C(=O)NCCc1ccccc1)CC2 (configuration not stated) | inconclusive: 79.4 µM [inhibitor, single point]
Cc1ccc(NC(=O)CN2CCN(C(=O)c3ccco3)CC2)cc1S(=O)(=O)N(C)C | inconclusive: 35.5 µM [inhibitor, partial curve, poor fit]

Structures above that contain bromine, in the order listed:
SMILES | Potency
CN1CCN(C(C(=O)O)c2cn(CC(=O)O)c3cc(Br)ccc23)CC1 (configuration not stated) | inconclusive: 10 µM [inhibitor, full curve, poor fit]
O=C(Oc1ccc(Br)cc1C(=S)N1CCOCC1)c1cccc([N+](=O)[O-])c1 | inconclusive: 89.1 µM [inhibitor, partial curve, poor fit]
